Data published in paper PMC5513536.
Results are given in words; binding and its absence hold for the method and conditions named. Binding seen in cells or lysates may run through a third protein. A yes stands for co-enrichment or nearness to the bait. Other partners may have been found. For some of these results: Tags and fused reporters may be left off the sequences shown.

Protein sequences, listed by entry. Tags and fused reporters are not part of them. Lines headed by an entry give the natural chain unless they say otherwise; changes in a name come on top. Chains listed by the source or under a name are the forms on record and can include a tag or linker.
UniProt Q9P258: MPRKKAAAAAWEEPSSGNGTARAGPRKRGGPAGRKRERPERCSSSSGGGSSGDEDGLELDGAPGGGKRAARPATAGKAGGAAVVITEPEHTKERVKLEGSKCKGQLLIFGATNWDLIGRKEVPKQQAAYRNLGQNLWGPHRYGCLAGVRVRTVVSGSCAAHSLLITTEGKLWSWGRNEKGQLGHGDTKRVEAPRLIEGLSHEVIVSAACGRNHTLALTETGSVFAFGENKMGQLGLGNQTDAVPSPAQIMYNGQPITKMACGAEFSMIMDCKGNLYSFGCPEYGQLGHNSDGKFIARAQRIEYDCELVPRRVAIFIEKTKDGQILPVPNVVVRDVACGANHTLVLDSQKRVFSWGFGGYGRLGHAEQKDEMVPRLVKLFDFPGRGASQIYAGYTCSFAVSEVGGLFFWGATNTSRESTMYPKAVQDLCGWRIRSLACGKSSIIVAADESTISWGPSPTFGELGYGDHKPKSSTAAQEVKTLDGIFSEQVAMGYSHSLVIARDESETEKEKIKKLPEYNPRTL
UniProt P08238: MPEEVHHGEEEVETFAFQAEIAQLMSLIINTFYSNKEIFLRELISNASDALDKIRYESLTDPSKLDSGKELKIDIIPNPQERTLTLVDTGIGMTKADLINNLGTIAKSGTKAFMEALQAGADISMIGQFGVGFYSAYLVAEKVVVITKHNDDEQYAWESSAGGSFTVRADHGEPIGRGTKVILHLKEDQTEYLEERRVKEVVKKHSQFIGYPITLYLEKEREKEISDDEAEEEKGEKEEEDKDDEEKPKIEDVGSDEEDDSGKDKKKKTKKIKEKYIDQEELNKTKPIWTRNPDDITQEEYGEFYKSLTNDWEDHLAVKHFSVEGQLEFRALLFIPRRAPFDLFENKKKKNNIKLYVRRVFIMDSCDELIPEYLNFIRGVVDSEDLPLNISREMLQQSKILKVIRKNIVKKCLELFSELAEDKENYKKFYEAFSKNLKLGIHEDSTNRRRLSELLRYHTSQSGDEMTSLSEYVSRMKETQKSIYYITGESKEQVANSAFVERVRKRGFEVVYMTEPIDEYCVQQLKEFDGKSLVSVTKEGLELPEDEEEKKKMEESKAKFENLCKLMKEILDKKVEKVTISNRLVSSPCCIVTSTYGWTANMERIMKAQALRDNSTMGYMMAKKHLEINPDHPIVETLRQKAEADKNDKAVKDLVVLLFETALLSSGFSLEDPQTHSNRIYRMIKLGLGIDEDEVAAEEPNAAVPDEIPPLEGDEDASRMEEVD
UniProt Q0QEN7: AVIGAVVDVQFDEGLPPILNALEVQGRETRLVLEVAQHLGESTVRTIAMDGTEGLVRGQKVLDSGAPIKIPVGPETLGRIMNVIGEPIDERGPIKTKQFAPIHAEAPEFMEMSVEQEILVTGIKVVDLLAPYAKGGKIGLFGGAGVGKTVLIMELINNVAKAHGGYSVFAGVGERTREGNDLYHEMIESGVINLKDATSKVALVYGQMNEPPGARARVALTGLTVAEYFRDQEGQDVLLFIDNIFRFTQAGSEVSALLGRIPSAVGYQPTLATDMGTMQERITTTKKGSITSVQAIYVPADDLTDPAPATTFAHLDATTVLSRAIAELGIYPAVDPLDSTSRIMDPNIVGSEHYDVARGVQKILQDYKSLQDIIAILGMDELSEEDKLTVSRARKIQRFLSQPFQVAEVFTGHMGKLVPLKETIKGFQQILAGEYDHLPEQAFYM
UniProt Q9Y265: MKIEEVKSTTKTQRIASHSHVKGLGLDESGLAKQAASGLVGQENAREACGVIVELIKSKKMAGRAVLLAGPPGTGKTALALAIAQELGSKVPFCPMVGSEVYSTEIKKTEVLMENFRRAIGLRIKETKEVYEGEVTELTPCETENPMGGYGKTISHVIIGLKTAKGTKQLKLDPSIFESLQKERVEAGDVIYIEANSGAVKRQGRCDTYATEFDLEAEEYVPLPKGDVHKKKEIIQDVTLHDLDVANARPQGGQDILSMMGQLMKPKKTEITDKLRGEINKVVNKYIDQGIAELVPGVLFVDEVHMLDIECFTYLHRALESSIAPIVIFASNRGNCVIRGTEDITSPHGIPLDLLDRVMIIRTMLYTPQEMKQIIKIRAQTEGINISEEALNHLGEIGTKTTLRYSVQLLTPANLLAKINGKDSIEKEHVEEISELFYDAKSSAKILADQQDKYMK
Isoform 2 of Dedicator of cytokinesis protein 7 (Q96N67-2, form named): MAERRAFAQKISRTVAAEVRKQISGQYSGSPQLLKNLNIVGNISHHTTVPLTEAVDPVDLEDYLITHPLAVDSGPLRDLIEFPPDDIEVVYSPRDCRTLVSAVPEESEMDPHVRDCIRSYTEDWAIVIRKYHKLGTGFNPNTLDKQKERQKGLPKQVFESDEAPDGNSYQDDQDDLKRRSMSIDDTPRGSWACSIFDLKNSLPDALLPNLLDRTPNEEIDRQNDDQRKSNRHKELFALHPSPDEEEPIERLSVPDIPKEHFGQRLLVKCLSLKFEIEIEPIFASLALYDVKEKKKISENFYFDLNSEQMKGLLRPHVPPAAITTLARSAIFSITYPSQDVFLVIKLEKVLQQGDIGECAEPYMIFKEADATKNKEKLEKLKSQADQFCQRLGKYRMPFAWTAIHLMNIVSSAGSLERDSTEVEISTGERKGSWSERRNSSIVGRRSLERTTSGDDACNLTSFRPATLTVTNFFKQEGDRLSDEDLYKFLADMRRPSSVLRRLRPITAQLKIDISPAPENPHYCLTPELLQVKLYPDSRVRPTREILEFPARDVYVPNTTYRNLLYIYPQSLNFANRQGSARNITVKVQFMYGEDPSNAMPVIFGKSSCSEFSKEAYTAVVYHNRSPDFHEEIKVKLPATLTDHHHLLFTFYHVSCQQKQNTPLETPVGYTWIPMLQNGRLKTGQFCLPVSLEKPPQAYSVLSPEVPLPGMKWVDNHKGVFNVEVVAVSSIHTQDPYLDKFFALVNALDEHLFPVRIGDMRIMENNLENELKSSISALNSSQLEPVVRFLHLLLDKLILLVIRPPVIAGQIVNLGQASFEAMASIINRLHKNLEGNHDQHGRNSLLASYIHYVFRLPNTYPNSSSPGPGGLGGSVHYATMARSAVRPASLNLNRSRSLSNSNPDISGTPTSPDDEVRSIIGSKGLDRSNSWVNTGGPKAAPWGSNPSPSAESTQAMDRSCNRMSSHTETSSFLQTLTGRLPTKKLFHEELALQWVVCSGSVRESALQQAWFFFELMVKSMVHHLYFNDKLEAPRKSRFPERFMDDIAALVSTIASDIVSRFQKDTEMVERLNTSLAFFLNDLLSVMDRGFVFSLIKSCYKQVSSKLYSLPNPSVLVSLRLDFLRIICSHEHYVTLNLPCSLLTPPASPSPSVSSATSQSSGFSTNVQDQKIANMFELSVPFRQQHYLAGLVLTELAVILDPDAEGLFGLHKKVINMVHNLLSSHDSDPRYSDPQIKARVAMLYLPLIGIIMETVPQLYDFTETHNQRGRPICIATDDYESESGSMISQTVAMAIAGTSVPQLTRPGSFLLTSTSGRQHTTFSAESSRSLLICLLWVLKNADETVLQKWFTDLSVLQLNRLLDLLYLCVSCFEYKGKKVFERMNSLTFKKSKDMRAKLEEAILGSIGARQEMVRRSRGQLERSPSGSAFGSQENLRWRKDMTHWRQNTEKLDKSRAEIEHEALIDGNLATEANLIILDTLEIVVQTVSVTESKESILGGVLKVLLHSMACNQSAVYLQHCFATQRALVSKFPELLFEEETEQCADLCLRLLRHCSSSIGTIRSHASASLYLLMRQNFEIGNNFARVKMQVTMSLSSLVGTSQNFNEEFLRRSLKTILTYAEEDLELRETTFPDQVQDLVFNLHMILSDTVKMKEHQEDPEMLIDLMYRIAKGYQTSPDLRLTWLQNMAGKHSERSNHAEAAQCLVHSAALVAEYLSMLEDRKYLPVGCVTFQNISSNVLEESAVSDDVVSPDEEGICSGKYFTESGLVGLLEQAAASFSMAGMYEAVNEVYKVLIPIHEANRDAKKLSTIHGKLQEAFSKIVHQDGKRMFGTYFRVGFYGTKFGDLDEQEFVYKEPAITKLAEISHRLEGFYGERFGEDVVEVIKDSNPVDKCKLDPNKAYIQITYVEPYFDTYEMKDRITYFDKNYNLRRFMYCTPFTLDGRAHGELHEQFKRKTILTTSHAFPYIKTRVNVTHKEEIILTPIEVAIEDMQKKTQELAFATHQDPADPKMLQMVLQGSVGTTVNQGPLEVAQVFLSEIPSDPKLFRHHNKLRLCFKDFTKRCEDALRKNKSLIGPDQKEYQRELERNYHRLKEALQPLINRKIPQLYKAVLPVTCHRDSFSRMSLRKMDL
Isoform 2 of tRNA (cytosine(34)-C(5))-methyltransferase (Q08J23-2, form named): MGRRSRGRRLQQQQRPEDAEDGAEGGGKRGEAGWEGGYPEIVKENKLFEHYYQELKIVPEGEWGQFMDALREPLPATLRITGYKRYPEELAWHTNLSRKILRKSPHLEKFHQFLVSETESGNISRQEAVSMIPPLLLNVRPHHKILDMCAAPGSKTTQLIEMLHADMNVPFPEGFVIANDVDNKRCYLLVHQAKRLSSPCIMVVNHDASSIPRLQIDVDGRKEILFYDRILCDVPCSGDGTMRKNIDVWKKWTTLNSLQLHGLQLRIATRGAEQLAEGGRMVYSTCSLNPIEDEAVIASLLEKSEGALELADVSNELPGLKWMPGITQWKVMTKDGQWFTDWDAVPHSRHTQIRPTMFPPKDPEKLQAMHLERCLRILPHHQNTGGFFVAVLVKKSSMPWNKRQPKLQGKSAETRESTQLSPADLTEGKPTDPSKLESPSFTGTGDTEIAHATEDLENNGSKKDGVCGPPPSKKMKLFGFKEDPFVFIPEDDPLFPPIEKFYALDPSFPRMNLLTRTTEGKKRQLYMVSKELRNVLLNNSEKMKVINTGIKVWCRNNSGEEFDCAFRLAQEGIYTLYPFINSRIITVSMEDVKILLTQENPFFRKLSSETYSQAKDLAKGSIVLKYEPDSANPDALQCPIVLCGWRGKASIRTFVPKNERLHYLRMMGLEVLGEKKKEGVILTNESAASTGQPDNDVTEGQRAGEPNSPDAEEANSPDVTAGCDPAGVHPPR
Isoform 3 of Double-stranded RNA-binding protein Staufen homolog 1 (O95793-3, form named): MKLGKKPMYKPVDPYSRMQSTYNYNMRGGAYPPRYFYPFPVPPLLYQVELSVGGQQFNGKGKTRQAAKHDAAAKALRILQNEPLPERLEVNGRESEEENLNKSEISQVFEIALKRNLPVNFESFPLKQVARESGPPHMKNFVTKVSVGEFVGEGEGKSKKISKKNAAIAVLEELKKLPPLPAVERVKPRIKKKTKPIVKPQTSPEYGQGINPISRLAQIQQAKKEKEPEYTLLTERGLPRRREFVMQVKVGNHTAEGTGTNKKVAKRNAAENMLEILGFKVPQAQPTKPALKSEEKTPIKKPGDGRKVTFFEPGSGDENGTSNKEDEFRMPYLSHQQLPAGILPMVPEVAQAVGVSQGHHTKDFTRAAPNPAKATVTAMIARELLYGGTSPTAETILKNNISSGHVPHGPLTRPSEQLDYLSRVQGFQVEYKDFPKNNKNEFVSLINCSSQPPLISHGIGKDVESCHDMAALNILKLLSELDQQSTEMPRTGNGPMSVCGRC
UniProt P05387: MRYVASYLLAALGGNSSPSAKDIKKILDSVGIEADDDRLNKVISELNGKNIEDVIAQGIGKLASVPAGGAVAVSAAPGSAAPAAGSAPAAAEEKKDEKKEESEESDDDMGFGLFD
UniProt O75475: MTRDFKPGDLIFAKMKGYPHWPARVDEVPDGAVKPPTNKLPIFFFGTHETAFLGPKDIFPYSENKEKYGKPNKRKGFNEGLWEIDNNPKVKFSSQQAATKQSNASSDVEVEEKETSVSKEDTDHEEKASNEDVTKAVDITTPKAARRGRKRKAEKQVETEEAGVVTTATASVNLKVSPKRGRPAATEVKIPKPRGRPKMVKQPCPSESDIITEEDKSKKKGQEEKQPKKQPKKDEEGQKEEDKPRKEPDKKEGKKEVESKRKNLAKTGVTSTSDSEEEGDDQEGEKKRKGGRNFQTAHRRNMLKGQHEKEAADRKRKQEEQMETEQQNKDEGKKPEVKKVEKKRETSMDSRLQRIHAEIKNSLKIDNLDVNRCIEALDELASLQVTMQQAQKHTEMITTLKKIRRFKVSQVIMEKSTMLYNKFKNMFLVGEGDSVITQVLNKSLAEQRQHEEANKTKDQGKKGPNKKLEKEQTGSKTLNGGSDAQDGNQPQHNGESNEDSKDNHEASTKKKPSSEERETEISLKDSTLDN
UniProt V9HW65: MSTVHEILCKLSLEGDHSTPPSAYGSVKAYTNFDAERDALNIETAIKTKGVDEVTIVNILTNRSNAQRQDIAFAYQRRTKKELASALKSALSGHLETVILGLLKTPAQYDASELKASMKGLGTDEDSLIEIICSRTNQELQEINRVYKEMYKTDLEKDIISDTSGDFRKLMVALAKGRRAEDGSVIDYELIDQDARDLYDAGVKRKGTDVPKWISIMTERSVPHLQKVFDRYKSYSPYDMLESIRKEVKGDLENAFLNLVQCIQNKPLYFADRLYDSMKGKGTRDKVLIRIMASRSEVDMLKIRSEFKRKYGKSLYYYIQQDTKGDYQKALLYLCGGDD

Experiments:
[1] = molecular target: Flag-epitope tagged ORF59 (BAC16-ORF59Flag) (KSHV (human herpesvirus 8)) (UniProt F5HID2); experiment: affinity purification with mass spectrometry
[2] = molecular target: T1, GFP fused ORF59 (KSHV (human herpesvirus 8)) (UniProt F5HID2); experiment: affinity purification with mass spectrometry
T1 sequence: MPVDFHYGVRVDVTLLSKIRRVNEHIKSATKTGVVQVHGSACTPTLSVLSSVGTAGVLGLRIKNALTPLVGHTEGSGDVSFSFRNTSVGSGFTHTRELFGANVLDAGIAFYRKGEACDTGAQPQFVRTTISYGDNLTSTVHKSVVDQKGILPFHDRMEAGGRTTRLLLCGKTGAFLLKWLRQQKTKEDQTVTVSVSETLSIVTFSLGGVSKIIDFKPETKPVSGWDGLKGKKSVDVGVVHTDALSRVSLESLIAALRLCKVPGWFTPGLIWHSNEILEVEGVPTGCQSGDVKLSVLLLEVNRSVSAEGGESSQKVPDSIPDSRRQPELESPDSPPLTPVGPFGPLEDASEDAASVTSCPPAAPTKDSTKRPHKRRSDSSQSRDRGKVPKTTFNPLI

Row | Substance | binding [1] | binding [2]
1 | Regulator of chromosome condensation 2, isoform CRA_a (from UniProt Q9P258 1-522) | binds | –
2 | Lamin-B1 (from UniProt P20700 1-586) | binds | –
3 | Heat shock protein HSP90-beta (from UniProt P08238 1-724) | binds | –
4 | Poly (ADP-ribose) polymerase 1 (from UniProt P09874 1-1014) | binds | –
5 | Nucleolar protein 56 (from UniProt O00567 1-594) | binds | –
6 | Protein RRP5 homolog (from UniProt Q14690 1-1871) | binds | –
7 | NUMA1 variant protein (Fragment) (from UniProt Q4LE64) | binds | –
8 | Isoform 3 of Core histome macro-H2A.1 (from UniProt O75367-3 1-371) | binds | –
9 | ATP synthase subunit beta (fragment) (from UniProt Q0QEN7 1-445) | binds | –
10 | Inosine-5'-monophosphate dehydrogenase 2 (from UniProt P12268 1-514) | binds | –
11 | High density lipoprotein binding protein (Vigilin), isoform CRA_a (from UniProt Q00341 1-1268) | binds | –
12 | Isoform 3 of Bcl-2 associated transcription factor 1 (from UniProt Q9NYF8-3 1-869) | binds | –
13 | ORF8 (from UniProt F5HB81 27-845) | binds | –
14 | Probable ATP-dependent RNA helicase DDX17 (from UniProt Q92841 1-729) | binds | –
15 | ORF64 (from UniProt Q2HR64 1-2635) | binds | –
16 | RuvB-like 1 (from UniProt Q9Y265 1-456) | binds | –
17 | Ubiquitin-activating enzyme E1 (A1S9T and BN75 temperature sensitivity complementing), isoform CRA_a (from UniProt P22314 1-1058) | binds | –
18 | FACT complex subunit SPT16 (from UniProt Q9Y5B9 1-1047) | binds | –
19 | Epididymis luminal protein 102 (from UniProt Q01082 1-2364) | binds | –
20 | C-1-tetrahydrofolate synthase, cytoplasmic (from UniProt P11586 1-935) | binds | –
21 | Isoform 3 of Exportin-2 (from UniProt P55060-3 1-945) | binds | –

Row | Substance | binding [1] | binding [2]
22 | Isoform 2 of Dedicator of cytokinesis protein 7 (from UniProt Q96N67-2 1-2129) | binds | –
23 | Alpha-enolase (from UniProt P06733 1-434) | binds | –
24 | Glyceraldehyde-3-phosphate dehydrogenase (GAPDH) (from UniProt P04406 1-335) | binds | –
25 | Probable ATP-dependent RNA helicase DDX5 (from UniProt P17844 1-614) | binds | –
26 | X-ray repair complementing defective repair in chinese hamster cells 6 (Ku autoantigen) isoform CRA_a (from UniProt P12956 1-609) | binds | –
27 | X-ray repair cross-complementing protein 5 (from UniProt P13010 1-732) | binds | –
28 | Isoform 2 of tRNA (cytosine(34)-C(5))-methyltransferase (from UniProt Q08J23-2 1-732) | binds | –
29 | Isoform 2 of ATP-binding cassette sub-family F member 1 (from UniProt Q8NE71-2 1-807) | binds | –
30 | Staphylococcal nuclease domain-containing protein 1 (from UniProt Q7KZF4 1-910) | binds | –
31 | HEAT repeat containing 1 (from UniProt Q9H583 1-2144) | binds | –
32 | Isoform 3 of Double-stranded RNA-binding protein Staufen homolog 1 (from UniProt O95793-3 1-502) | binds | –
33 | KSHV mRNA transcript accumulation protein, ORF57 (from UniProt Q2HR75 1-455) | binds | –
34 | Epididymis secretory protein Li 85 (from UniProt Q15365 1-356) | binds | –
35 | Protein arginine N-methyltransferase 5 (from UniProt O14744 1-637) | binds | binds
36 | vIRF1 (from UniProt F5HF68 1-449) | binds | –
37 | Serine/arginine-rich splicing factor 1 (from UniProt Q07955 1-248) | binds | –
38 | Isoform C1 of Heterogeneous nuclear ribonucleoproteins C1/C2 (from UniProt P07910-2 1-293) | binds | –
39 | 60S ribosomal protein P2 (from UniProt P05387 1-115) | binds | –
40 | PC4 and SFRS1-interacting protein (from UniProt O75475 1-530) | binds | –
41 | Annexin (from UniProt V9HW65 1-339) | binds | –
42 | Guanine nucleotide-binding protein G(i) subunit alpha-2 (from UniProt P04899 1-355) | binds | –
